Results: paper PMC12670160, “A drug-repurposing screen of FDA- and EMA-approved drugs identifies two NF-κB inhibitors active against eumycetoma” (Journal of Antimicrobial Chemotherapy, 2025)
Structures can show the parent of a compound that is named as a salt. About 130 (2.5%) of roughly 5,300 compounds showed an effect of 50% or more. The list shows a part of the results.

System: M. mycetomatis strain mm55
Conditions: primary screen, metabolic activity vs growth control; 96 h, 2 µM; inhibitor

Going from `C[C@@H]1C[C@@H]([C@H](O)CC2CC(=O)NC(=O)C2)C(=O)[C@@H](C)C1` [ONC0004057, cycloheximide] to `CN1C(=O)C[C@@H](C(=O)N[C@@H](Cc2c[nH]cn2)C(=O)N2CCC[C@H]2C(N)=O)NC1=O` [ONC0001236, taltirelin], the “% viability” value falls from 159.9% to 94.54%.

First: COc1cccc(N(C)C(=S)Oc2ccc3c(c2)CCCC3)n1 [ONC0005039, liranaftate]
Second: COc1ccc2c(c1)C(=O)N(CCc1ccc(S(=O)(=O)NC(=O)NC3CCCCC3)cc1)C(=O)C2(C)C [ONC0005045, gliquidone]
The “% viability” value of the first is higher: 93.1% for the first, 85.53% for the second.

Compared with `Cc1ccc(-c2ncn(-c3ccc(Nc4nccc(-c5cccc(N6CCOCC6)c5)n4)cc3)n2)cn1` [ONC0001017, sr3306], `Cc1c(NC(=O)OC[C@@H]2COCCN2)cn2ncnc(Nc3ccc4c(cnn4Cc4cccc(F)c4)c3)c12` [ONC0000856, bms599626] is higher in “% viability” value: 76.53% for the first, 79.52% for the second.

Compared with `CCNC(=O)c1noc(-c2cc(C(C)C)c(O)cc2O)c1-c1ccc(CN2CCOCC2)cc1` [ONC0001803, luminespib], `CNCc1ccc(-c2[nH]c3cc(F)cc4c3c2CCNC4=O)cc1` [ONC0004671, rucaparib ag014699pf01367338 phosphate] is lower in “% viability” value: 119.4% for the first, 102.4% for the second.

First: CCCNC(C)C(=O)Nc1c(C)csc1C(=O)OC (stereo not shown) [ONC0004821, articaine hcl]
Second: CC(=O)NCCNc1cc(Cl)nn2c(-c3cccc(S(=O)(=O)N(C)C)c3)c(C)nc12 [ONC0001404, mi14]
The “% viability” value of the first is lower: 100% for the first, 118.1% for the second.

Compared with `NCCc1cc[nH]n1` [ONC0003696], `CC(=N)NCc1cccc(CN)c1` [ONC0002472, 1400w] is higher in “% viability” value: 54.75% for the first, 77.71% for the second.

Going from `COc1cc(N)c(Cl)cc1C(=O)CCC1CCN(CCNS(C)(=O)=O)CC1` [ONC0002585, rs67506] to `CC(C)(C)C1CCc2c(sc(NC(=O)c3ccco3)c2C(=O)O)C1` (stereo not shown) [ONC0001654, caccinha01], the “% viability” value rises from 61.24% to 91.37%.

Compared with `O=C1NC(=O)c2cc(Nc3ccc(F)cc3)c(Nc3ccc(F)cc3)cc21` [ONC0001274, cgp53353], `OCCC#Cc1nc(-c2ccc(F)cc2)c(-c2ccncc2)n1CCCc1ccccc1` [ONC0002630, rwj67657] is lower in “% viability” value: 118.4% for the first, 73.95% for the second.

Going from `CN[C@@H]1C(O)[C@@H](O[C@@H]2[C@@H](O)[C@H](O[C@H]3OC(CN)=CC[C@H]3N)[C@@H](N)C[C@H]2N)OC[C@]1(C)O` (stereo partly shown) [ONC0004182, sisomicin sulfate] to `C#C[C@]1(OC(C)=O)CC[C@H]2[C@@H]3CCC4=CC(=O)CC[C@@H]4[C@H]3CC[C@@]21C` [ONC0000411, norethindrone acetate], the “% viability” value falls from 80.98% to 51.27%.

Going from `CC(=O)c1cc([N+](=O)[O-])c(Sc2ccc(F)cc2F)s1` [ONC0005133, p22077] to `CC1=CC(=O)c2ccccc2C1=O` [ONC0004076, menadione], the “% viability” value rises from 95.02% to 98.22%.

Compared with `C[C@H](NC[C@H](O)CP(=O)(O)Cc1ccccc1)c1ccc(Cl)c(Cl)c1` [ONC0001599, cgp55845], `O=C(O)c1nn(Cc2ccc(Cl)cc2Cl)c2ccccc12` [ONC0001931, lonidamine] is higher in “% viability” value: 83.7% for the first, 86.74% for the second.

Compared with `O=C(O)C(Cl)Cl` [ONC0002183, dichloroacetate], `CC(C[N+](C)(C)C)OC(N)=O` (stereo not shown) [ONC0003212, bethanechol chloride] is higher in “% viability” value: 74.22% for the first, 121.5% for the second.

Going from `NS(=O)(=O)Cc1noc2ccccc12` [ONC0002687, zonisamide] to `Cc1noc(C)c1-c1cc(O)cc(C(O)c2ccccc2)c1` (stereo not shown) [ONC0000256, oxfbd02], the “% viability” value falls from 69.04% to 61.49%.

Compared with `CN(C)CCN(Cc1ccc(Cl)cc1)c1ccccn1` [ONC0005381, chloropyramine hydrochloride], `Cc1ccc(C(=O)N(CCCN)[C@@H](c2nc3cc(Cl)ccc3c(=O)n2Cc2ccccc2)C(C)C)cc1` [ONC0004640, ispinesib sb715992] is lower in “% viability” value: 93.83% for the first, 78.35% for the second.

Compared with `CCCCCCCCCCOc1cc2c(O)c(C(=O)OCC)cnc2cc1OCC` [ONC0001862, decoquinate], `CCCCOC(=O)c1ccc(O)cc1` [ONC0005436, butyl paraben] is lower in “% viability” value: 96.28% for the first, 87.57% for the second.

Going from `C=CCc1ccc(O)c(-c2cc(CC=C)ccc2O)c1` [ONC0004998, magnolol] to `OCc1ccc(O[C@@H]2O[C@@H](CO)[C@@H](O)[C@H](O)[C@H]2O)cc1` [ONC0005041, gastrodin gastrodine], the “% viability” value rises from 110.9% to 145%.

Compared with `Cc1cc(C(C#N)c2ccc(Cl)cc2)c(Cl)cc1NC(=O)c1cc(I)cc(I)c1O` (stereo not shown) [ONC0003915, closantel], `CC(C)(C)c1cc(C=C(C#N)C#N)cc(C(C)(C)C)c1O` [ONC0004560, tyrphostin 9 sf 6847] is lower in “% viability” value: 71.86% for the first, 1.693% for the second.

First: NCCC(O)(P(=O)(O)O)P(=O)(O)O [ONC0004803, pamidronate disodium]
Second: O=P(O)(O)OC[C@H]1OC(O)(COP(=O)(O)O)[C@@H](O)[C@@H]1O (stereo partly shown) [ONC0003364, dfructose16diphosphate trisodium salt]
The “% viability” value of the first is higher: 92.91% for the first, 91.66% for the second.

Compared with `CC(C)[C@@H]1C(=O)N(S(C)(=O)=O)[C@@H]2CCN(C(=O)/C=C/CN3CCCCC3)[C@H]21` [ONC0001820, gw311616], `N#CC[C@@H](C1CCCC1)n1cc(-c2ncnc3[nH]ccc23)cn1` [ONC0005137, sruxolitinib] is lower in “% viability” value: 116.1% for the first, 75.93% for the second.

Going from `Cc1ccc2nc(NCCN)c3ncc(C)n3c2c1` [ONC0000185, bms345541] to `COCCCOc1cc(C[C@@H](C[C@H](N)[C@@H](O)C[C@H](C(=O)NCC(C)(C)C(N)=O)C(C)C)C(C)C)ccc1OC` [ONC0004094, aliskiren hemifumarate], the “% viability” value rises from 76.38% to 99%.
